Data on one molecule can be found in article PMC10810270, “Molecular mechanism of specific DNA sequence recognition by NRF1” (Nucleic Acids Research, 2023).

These are yes or no findings as the source states them, for the method shown.

For this test, the target named is NRF1 (aa 177–284) (human) (UniProt Q16656). Nature of the test: SEC-MALS; HPLC-MALS, WTC-015S5 column, 50 mM PBS and 150 mM NaCl, 0.5 mL/min; oligomeric state of NRF1 fragments without DNA; both purified.

B1: NRF1 (aa 177–284) (domain or fragment, UniProt Q16656 177-284)
chain: APQEVNSELPPLTIDGIPVSVDKMTQAQLRAFIPEMLKYSTGRGKPGWGKESCKPIWWPEDIPWANVRSDVRTEEQKQRVSWTQALRTIVKNCYKQHGREDLLYAFED
For the molecule B1, the binding entry is “no binding”.
